# Measured values published in the supplement of paper PMC12823440, “Inhibitors supercharge kinase turnover through native proteolytic circuits” (Nature, 2025).
# Protein sequences, listed by entry. Tags and fused reporters are not part of them. Lines headed by an entry give the natural chain unless they say otherwise; changes in a name come on top.
# UniProt P41240: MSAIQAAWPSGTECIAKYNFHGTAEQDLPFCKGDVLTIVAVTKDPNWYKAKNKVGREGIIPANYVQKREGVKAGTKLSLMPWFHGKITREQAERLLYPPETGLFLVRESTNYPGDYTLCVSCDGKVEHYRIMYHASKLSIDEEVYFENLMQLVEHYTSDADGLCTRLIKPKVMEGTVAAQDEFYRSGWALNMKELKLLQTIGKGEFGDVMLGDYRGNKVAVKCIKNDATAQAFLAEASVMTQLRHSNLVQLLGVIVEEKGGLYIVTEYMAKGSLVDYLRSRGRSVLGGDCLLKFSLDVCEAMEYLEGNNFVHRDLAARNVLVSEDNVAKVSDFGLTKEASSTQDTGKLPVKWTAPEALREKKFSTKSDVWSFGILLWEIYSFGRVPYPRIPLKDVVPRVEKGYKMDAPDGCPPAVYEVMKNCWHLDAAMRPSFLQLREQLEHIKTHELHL
# UniProt O96013: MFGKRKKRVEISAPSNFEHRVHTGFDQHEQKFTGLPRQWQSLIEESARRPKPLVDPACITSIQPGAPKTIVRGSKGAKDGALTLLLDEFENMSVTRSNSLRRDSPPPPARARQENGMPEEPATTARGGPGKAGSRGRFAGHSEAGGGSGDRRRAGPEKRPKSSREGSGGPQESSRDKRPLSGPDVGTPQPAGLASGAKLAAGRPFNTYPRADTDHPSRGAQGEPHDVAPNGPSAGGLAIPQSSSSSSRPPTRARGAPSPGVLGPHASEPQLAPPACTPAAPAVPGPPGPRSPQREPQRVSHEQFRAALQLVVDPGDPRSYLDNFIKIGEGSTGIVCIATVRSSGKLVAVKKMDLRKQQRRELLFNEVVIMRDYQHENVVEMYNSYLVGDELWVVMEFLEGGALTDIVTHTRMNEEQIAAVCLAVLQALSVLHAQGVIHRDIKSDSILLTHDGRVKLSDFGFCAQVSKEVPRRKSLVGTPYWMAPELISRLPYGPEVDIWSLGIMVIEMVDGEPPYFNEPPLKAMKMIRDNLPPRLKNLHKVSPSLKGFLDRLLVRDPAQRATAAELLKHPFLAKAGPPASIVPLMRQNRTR
# UniProt Q16620, whole entry, looked up: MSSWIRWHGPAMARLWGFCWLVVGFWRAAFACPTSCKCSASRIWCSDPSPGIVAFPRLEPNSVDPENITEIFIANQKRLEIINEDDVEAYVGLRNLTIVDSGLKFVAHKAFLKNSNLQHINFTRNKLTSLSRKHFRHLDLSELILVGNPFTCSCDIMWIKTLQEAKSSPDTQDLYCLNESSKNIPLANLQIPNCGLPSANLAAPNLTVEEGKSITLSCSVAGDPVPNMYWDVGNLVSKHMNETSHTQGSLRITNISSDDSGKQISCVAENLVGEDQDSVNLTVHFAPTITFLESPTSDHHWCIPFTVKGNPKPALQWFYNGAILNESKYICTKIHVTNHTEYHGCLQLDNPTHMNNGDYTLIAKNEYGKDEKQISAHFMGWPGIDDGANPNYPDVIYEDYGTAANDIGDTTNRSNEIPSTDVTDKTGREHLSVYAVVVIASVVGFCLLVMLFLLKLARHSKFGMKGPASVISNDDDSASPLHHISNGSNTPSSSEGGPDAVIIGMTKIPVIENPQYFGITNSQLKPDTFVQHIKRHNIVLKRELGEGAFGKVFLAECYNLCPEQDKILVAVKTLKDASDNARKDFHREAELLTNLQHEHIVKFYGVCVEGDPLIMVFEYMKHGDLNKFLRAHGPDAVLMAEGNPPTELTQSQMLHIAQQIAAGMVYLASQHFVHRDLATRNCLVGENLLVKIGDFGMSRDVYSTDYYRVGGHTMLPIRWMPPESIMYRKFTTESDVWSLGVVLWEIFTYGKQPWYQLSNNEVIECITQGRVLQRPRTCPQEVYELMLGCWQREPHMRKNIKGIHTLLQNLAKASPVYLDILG
# UniProt P31152, whole entry: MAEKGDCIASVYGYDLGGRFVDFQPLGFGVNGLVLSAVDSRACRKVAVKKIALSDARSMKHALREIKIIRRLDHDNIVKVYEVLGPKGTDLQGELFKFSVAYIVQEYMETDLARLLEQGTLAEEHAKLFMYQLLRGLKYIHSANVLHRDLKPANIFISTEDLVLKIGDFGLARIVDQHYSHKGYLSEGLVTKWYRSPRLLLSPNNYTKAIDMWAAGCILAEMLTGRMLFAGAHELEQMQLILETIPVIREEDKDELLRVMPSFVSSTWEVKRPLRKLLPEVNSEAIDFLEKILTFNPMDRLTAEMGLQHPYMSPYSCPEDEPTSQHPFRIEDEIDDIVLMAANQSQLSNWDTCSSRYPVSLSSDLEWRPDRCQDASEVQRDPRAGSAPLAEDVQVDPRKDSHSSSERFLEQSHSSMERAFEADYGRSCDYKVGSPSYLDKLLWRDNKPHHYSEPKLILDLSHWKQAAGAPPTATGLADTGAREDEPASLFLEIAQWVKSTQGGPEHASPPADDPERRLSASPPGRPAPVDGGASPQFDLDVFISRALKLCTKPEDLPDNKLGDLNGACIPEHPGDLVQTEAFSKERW
# UniProt P29597: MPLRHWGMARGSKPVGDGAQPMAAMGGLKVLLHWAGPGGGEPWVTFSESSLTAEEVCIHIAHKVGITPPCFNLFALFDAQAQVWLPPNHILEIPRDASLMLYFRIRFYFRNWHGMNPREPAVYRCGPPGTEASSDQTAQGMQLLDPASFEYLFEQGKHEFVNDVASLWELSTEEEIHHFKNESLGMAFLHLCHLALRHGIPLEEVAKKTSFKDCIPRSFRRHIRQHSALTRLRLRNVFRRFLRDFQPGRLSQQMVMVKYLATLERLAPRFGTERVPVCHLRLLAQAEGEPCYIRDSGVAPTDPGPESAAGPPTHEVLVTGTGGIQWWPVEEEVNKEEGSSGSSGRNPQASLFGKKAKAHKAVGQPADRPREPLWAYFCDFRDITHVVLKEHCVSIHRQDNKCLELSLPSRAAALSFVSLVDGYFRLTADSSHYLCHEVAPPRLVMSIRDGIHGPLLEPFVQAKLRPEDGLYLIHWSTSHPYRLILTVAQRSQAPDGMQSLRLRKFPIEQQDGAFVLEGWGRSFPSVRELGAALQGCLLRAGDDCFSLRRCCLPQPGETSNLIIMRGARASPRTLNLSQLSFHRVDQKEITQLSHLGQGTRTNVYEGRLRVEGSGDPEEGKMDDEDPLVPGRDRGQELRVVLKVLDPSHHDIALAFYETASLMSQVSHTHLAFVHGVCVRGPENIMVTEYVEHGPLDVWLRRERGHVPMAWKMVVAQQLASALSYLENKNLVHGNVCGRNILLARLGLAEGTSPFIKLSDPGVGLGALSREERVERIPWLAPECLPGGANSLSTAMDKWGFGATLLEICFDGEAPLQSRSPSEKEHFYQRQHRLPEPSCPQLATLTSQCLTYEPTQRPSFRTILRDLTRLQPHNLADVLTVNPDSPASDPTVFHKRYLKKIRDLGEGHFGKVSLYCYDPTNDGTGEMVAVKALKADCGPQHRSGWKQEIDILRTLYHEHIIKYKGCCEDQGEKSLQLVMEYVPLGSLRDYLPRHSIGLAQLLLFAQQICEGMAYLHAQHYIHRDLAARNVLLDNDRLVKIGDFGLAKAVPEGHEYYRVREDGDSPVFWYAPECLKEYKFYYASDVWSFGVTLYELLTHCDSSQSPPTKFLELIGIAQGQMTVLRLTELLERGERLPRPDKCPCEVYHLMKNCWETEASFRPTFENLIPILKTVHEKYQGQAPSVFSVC
# UniProt Q92630: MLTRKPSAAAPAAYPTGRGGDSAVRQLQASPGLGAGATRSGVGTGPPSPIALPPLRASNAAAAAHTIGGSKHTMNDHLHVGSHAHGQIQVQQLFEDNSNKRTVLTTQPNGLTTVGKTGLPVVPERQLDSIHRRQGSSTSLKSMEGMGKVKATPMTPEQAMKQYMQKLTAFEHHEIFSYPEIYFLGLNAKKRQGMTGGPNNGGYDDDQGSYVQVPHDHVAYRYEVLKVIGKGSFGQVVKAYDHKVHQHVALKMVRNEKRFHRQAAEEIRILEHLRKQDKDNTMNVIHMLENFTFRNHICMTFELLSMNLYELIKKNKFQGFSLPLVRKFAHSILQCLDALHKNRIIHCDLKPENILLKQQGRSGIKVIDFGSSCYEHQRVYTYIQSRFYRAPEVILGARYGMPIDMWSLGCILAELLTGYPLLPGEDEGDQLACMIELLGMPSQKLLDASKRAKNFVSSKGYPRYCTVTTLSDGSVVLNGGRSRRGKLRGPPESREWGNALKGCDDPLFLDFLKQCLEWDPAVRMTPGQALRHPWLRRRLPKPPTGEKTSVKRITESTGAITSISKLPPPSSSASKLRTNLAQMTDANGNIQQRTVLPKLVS
# UniProt P10398: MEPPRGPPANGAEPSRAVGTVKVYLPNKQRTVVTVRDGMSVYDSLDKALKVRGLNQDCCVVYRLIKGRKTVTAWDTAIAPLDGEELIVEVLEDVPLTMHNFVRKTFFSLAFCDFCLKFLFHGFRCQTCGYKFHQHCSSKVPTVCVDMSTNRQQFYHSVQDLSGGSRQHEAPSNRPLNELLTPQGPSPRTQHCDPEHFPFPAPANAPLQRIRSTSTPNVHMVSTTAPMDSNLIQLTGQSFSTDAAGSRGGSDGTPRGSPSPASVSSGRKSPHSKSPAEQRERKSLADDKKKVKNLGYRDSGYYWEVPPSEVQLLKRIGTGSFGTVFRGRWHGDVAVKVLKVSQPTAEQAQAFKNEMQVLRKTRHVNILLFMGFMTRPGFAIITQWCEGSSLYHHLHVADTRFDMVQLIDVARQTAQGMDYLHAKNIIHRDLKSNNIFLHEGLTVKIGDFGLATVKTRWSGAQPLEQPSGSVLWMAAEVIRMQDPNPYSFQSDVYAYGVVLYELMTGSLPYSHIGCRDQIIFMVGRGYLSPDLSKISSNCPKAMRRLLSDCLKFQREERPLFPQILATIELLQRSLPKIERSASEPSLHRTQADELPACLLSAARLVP
# UniProt Q15118, whole entry, looked up: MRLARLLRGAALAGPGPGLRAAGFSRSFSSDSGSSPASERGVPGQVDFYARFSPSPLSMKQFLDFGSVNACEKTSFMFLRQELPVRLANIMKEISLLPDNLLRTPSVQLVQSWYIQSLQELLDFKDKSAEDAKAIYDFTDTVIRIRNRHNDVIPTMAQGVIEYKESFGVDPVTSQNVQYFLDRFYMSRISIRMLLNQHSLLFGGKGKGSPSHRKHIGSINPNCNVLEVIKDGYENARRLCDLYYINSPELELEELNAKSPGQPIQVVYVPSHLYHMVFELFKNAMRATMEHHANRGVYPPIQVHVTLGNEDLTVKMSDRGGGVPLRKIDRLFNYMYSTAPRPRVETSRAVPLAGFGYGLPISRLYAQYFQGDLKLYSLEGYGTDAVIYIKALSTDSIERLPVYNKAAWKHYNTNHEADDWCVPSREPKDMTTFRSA
# UniProt P53350, whole entry: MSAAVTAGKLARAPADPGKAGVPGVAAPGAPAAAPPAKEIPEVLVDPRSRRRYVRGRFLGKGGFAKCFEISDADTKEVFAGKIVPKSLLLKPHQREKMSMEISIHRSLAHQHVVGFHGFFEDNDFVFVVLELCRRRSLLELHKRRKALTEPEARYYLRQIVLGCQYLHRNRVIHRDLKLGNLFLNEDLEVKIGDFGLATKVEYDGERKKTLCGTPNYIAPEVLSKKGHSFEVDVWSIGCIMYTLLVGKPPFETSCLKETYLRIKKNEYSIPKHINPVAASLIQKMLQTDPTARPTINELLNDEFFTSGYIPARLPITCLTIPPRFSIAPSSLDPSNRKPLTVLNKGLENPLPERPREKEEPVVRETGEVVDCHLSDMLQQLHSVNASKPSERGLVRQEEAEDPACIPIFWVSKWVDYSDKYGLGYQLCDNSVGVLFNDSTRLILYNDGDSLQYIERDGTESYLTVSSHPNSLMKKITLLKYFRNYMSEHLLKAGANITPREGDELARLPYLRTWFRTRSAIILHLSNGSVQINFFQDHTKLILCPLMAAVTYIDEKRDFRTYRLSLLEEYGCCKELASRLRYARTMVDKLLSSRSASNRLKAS
# UniProt Q9Y6E0: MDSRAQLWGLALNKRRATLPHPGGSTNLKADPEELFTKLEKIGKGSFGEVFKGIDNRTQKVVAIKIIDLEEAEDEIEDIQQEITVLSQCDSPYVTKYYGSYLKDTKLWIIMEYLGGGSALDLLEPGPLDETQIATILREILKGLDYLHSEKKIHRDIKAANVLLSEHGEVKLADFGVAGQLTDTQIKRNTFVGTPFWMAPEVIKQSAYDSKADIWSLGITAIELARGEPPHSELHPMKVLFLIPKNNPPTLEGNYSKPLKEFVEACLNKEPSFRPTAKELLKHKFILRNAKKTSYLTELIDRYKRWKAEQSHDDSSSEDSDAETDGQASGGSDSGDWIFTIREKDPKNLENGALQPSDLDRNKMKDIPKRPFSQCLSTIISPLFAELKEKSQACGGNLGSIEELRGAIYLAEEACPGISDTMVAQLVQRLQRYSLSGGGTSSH
# Some of the results follow. The calls rarely recur for the same compound in another form.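 Kinases, fused to nanoluciferase, were expressed in K562 cells; luminescence was measured every 4 h from 2 to 18 h as percent of control (DMSO = 100%, positive control = 0%). A time point is decreased if signal falls significantly (2 sigma). Hits were called by the authors by a rule that is not shown; the count of time points alone does not decide it.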
# Compound: CC#CC(=O)N1CCC[C@H]1c1nc(-c2ccc(C(=O)Nc3ccccn3)cc2)c2c(N)nccn12 [Acalabrutinib]
# Test: number of time points (of 5) at which kinase-Nluc abundance scored as decreased, DMSO-normalised (count); higher = more persistent destabilization
# Details: 10 µM; K562; 2-18 h
row,Target,number of time points
1,FGR (UniProt P09769),0
2,PTK2B (UniProt Q14289),0
3,LMTK2 (UniProt Q8IWU2),0
4,CSK (UniProt P41240),0
5,STK38 (UniProt Q15208),0
6,ZAP70 (UniProt P43403),0
7,SYK (UniProt P43405),0
8,RIPK2 (UniProt O43353),0
9,SPHK1 (UniProt Q9NYA1),0
10,ERBB3 (UniProt P21860),0
11,PAK4 (UniProt O96013),0
12,NTRK2 (UniProt Q16620),0
13,GSK3A (UniProt P49840),0
14,MAPK4 (UniProt P31152),0
15,TYK2 (UniProt P29597),0
16,EPHA2 (UniProt P29317),0

row,Target,number of time points
1,DYRK2 (UniProt Q92630),0
2,ARAF (UniProt P10398),0
3,ROR2 (UniProt Q01974),0
4,PRKAA1 (UniProt Q13131),0
5,INSRR (UniProt P14616),0
6,BRAF (UniProt P15056),0
7,PIK4CB (UniProt Q9UBF8),0
8,NTRK3 (UniProt Q16288),0
9,CSNK1D (UniProt P48730),0
10,PDK1 (UniProt Q15118),0
11,CDK3 (UniProt Q00526),0
12,MAP2K2 (UniProt P36507),0
13,FLT3 (UniProt P36888),0
14,AURKC (UniProt Q9UQB9),0
15,PLK1 (UniProt P53350),0
16,STK24 (UniProt Q9Y6E0),0

# Compound: CC(=O)c1c(C)c2cnc(Nc3ccc(N4CCN(C(=O)CCCCCC(=O)N[C@H](C(=O)N5C[C@H](O)C[C@H]5C(=O)NCc5ccc(-c6scnc6C)cc5)C(C)(C)C)CC4)cn3)nc2n(C2CCCC2)c1=O
# Test: as above
# Details: 2.5 µM; K562; 2-18 h
row,Target,number of time points
1,FGR (UniProt P09769),0
2,PTK2B (UniProt Q14289),0
3,LMTK2 (UniProt Q8IWU2),0
4,CSK (UniProt P41240),0
5,STK38 (UniProt Q15208),0
6,ZAP70 (UniProt P43403),0
7,RIPK2 (UniProt O43353),0
8,SPHK1 (UniProt Q9NYA1),0
9,ERBB3 (UniProt P21860),0
10,PAK4 (UniProt O96013),0
11,NTRK2 (UniProt Q16620),2
12,GSK3A (UniProt P49840),0
13,MAPK4 (UniProt P31152),0
14,TYK2 (UniProt P29597),0
15,EPHA2 (UniProt P29317),0
16,DYRK2 (UniProt Q92630),0
17,ARAF (UniProt P10398),0
18,ROR2 (UniProt Q01974),0
19,PRKAA1 (UniProt Q13131),0
20,INSRR (UniProt P14616),0
21,BRAF (UniProt P15056),0
22,PIK4CB (UniProt Q9UBF8),0
23,CSNK1D (UniProt P48730),0
24,PDK1 (UniProt Q15118),0
25,CDK3 (UniProt Q00526),0
26,MAP2K2 (UniProt P36507),0
27,FLT3 (UniProt P36888),0
28,AURKC (UniProt Q9UQB9),0
29,PLK1 (UniProt P53350),0
30,STK24 (UniProt Q9Y6E0),0

# Compound: CC(C)(C)n1nc(-c2ccc(Cl)cc2)c2c(N)ncnc21
# Test: as above
# Details: 10 µM; K562; 2-18 h
row,Target,number of time points
1,FGR (UniProt P09769),0
2,PTK2B (UniProt Q14289),0
3,LMTK2 (UniProt Q8IWU2),0
4,CSK (UniProt P41240),0
5,STK38 (UniProt Q15208),0
6,ZAP70 (UniProt P43403),0
7,SYK (UniProt P43405),0
8,RIPK2 (UniProt O43353),0
9,SPHK1 (UniProt Q9NYA1),0
10,ERBB3 (UniProt P21860),0
11,PAK4 (UniProt O96013),0
12,NTRK2 (UniProt Q16620),0
13,GSK3A (UniProt P49840),0
14,MAPK4 (UniProt P31152),0
15,TYK2 (UniProt P29597),0
16,EPHA2 (UniProt P29317),0

row,Target,number of time points
1,DYRK2 (UniProt Q92630),0
2,ARAF (UniProt P10398),0
3,ROR2 (UniProt Q01974),0
4,PRKAA1 (UniProt Q13131),0
5,INSRR (UniProt P14616),0
6,BRAF (UniProt P15056),0
7,PIK4CB (UniProt Q9UBF8),0
8,NTRK3 (UniProt Q16288),0
9,CSNK1D (UniProt P48730),0
10,PDK1 (UniProt Q15118),0
11,CDK3 (UniProt Q00526),0
12,MAP2K2 (UniProt P36507),0
13,FLT3 (UniProt P36888),0
14,AURKC (UniProt Q9UQB9),0
15,PLK1 (UniProt P53350),0
16,STK24 (UniProt Q9Y6E0),0
